Test results taken from PMC8483352.
Read-outs that look alike come from different tables or passages of the source. No constants are given. Whether binding was seen depends on the method and setting. Binding can be weak; no strength is given. For some assays here: Sequences can lack the tags named with a protein.

Sequences of proteins named here, by UniProt entry; tags and fusion partners are left off. A change or cut given only in a name is not applied to a line headed by its entry.
UniProt Q06148: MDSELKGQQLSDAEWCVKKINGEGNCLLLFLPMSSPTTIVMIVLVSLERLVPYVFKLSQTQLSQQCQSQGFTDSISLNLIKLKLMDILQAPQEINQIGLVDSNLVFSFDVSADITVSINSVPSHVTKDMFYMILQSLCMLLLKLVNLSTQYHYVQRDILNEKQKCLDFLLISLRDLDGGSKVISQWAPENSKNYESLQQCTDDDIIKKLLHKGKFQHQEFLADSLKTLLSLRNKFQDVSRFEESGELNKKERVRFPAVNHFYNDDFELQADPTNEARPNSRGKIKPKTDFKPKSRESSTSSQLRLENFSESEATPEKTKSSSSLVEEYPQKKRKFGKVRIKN
UniProt P32829: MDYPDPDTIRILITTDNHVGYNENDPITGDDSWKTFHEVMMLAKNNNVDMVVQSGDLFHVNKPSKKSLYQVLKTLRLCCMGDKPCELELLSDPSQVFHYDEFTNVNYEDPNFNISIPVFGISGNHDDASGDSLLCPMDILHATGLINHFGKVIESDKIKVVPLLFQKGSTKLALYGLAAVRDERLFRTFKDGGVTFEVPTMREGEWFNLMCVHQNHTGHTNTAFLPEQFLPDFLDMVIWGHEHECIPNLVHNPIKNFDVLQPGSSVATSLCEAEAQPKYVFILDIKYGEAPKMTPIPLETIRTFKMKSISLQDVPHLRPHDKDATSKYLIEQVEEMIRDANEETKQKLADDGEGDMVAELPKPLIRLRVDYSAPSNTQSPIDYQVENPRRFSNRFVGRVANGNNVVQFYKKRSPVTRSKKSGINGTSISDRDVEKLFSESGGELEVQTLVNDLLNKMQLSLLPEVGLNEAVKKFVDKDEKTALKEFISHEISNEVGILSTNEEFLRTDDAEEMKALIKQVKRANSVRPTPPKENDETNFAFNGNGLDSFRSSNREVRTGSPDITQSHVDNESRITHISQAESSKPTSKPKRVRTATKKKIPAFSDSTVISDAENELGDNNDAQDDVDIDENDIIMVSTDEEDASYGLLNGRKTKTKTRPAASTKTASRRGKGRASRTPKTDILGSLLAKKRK

B1: recombinant Yku80, 6XHis tagged (protein, UniProt Q04437 1-629)
chain: MSSESTTFIVDVSPSMMKNNNVSKSMAYLEYTLLNKSKKSRKTDWISCYLANCPVSENSQEIPNVFQIQSFLAPVTTTATIGFIKRLKQYCDQHSHDSSNEGLQSMIQCLLVVSLDIKQQFQARKILKQIVVFTDNLDDLDITDEEIDLLTEELSTRIILIDCGKDTQEERKKSNWLKLVEAIPNSRIYNMNELLVEITSPATSVVKPVRVFSGELRLGADILSTQTSNPSGSMQDENCLCIKVEAFPATKAVSGLNRKTAVEVEDSQKKERYVGVKSIIEYEIHNEGNKKNVSEDDQSGSSYIPVTISKDSVTKAYRYGADYVVLPSVLVDQTVYESFPGLDLRGFLNREALPRYFLTSESSFITADTRLGCQSDLMAFSALVDVMLENRKIAVARYVSKKDSEVNMCALCPVLIEHSNINSEKKFVKSLTLCRLPFAEDERVTDFPKLLDRTTTSGVPLKKETDGHQIDELMEQFVDSMDTDELPEIPLGNYYQPIGEVTTDTTLPLPSLNKDQEENKKDPLRIPTVFVYRQQQVLLEWIHQLMINDSREFEIPELPDSLKNKISPYTHKKFDSTKLVEVLGIKKVDKLKLDSELKTELEREKIPDLETLLKRGEQHSRGSPNNSNN

Key:
Experiment in all cases: pull-down; GST-tagged Nej1 (wild type or mutant) immobilized on glutathione-sepharose; ~300-600 ng His-tagged protein pre-cleared and incubated in 25 mM HEPES pH 7.5, 100 mM NaCl, 10% glycerol, 100 ug/ml BSA, 0.5 mM DTT, 0.1% Tween 20, 4°C, 3 hours; western blot with anti-His and anti-GST; both purified
[1] = target: recombinant GST-Nej1-3KR (non-acetylatable mutant) (budding yeast) (UniProt Q06148)
[2] = target: recombinant GST-Nej1 (wild type) (budding yeast) (UniProt Q06148)
[3] = target: recombinant GST-Nej1-3KR (non-acetylatable mutant) (budding yeast) (UniProt Q06148); remark: listed apart in the source
[4] = target: recombinant GST-Nej1-3KQ (acetyl-mimicking mutant) (budding yeast) (UniProt Q06148)
[5] = target: recombinant GST-Nej1 (wild type) (budding yeast) (UniProt Q06148); remark: listed apart in the source

binding [1]	binding [2]	binding [3]	binding [4]	binding [5]	Molecule
binds	binds	–	–	–	C-terminal region of recombinant Mre11 (from UniProt P32829) (domain or fragment)
–	–	binds	binds	binds	B1
